One assay has as its target PACSIN2-GFP (UniProt Q9UNF0). Kind of assay: co-IP; GFP-Trap magnetic agarose beads (Chromotek) on lysates of HUVECs expressing GFP, PACSIN2-GFP or EHD4-GFP, or untransduced; lysis buffer 20 mM HEPES pH 7.4, 150 mM NaCl, 1.7 mM CaCl2, 0.5% NP-40; overnight at 4 °C; detected by Western blot. A general note: In western blotting, separated proteins are transferred to a membrane and probed.

Protein sequences, listed by entry. Tags and fused reporters are not part of them.
UniProt Q9UNF0: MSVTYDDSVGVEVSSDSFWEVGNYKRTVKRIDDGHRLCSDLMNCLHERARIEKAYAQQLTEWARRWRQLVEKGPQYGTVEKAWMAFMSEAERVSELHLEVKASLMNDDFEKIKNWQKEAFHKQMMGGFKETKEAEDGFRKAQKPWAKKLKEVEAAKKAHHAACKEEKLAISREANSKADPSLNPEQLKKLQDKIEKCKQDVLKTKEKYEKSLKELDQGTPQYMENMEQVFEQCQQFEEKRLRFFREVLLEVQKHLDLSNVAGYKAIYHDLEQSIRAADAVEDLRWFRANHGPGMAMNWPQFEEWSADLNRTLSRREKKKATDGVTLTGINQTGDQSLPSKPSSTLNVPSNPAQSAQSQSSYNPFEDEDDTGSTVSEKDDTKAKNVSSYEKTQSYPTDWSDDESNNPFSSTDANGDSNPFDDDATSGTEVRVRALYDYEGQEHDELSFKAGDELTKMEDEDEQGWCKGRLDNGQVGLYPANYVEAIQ
UniProt Q8N3F8: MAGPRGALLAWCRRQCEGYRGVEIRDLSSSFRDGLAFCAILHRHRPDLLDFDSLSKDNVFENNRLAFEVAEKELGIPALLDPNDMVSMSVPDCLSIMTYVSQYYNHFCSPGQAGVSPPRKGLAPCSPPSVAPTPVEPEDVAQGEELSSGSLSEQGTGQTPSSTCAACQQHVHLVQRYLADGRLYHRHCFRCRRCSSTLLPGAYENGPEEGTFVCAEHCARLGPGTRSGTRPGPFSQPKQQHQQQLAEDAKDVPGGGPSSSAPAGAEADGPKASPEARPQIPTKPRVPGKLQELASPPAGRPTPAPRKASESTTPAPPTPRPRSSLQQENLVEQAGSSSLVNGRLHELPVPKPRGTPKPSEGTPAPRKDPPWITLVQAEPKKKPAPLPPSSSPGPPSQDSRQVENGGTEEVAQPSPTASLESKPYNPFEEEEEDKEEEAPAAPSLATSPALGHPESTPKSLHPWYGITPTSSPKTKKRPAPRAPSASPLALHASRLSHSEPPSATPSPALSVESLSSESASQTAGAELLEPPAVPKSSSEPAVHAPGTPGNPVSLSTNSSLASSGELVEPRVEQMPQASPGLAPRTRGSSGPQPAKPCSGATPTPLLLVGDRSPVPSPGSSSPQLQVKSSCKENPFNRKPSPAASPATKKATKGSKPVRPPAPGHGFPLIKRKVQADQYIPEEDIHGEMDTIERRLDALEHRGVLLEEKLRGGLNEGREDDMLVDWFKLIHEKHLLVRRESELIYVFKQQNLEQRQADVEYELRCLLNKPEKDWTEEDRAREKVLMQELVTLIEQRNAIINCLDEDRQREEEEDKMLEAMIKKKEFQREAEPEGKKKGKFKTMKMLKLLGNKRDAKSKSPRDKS

The next assay addresses T1, EHD4-GFP (human) (UniProt Q9H223).
T1 sequence: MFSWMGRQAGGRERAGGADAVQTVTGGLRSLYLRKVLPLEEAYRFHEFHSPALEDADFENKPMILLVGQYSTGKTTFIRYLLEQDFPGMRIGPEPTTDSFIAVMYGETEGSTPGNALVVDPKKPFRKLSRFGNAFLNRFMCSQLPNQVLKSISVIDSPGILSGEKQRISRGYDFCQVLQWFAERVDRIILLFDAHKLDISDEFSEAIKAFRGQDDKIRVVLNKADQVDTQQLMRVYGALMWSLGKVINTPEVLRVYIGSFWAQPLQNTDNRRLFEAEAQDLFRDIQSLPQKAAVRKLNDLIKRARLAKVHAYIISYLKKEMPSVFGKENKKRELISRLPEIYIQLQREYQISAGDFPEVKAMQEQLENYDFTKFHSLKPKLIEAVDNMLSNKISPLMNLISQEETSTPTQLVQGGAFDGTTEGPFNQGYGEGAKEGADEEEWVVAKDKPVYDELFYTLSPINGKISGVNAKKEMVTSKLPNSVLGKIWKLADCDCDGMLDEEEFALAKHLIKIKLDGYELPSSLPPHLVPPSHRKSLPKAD
Described as above.

For 3 molecules, binding results are on record in PMC8110786.

Results are given in words; binding and its absence hold for the method and conditions named. Binding seen in cells or lysates may run through a third protein. Some binding calls cover weakened binding; strength is not graded here. For part of these data: Where a sequence is shown, tags or fusion partners need not be part of it.

“MICAL-L1 (endogenous) (from UniProt Q8N3F8 1-863)”: in the assay with PACSIN2-GFP, the binding entry was “binds”.

Regarding “PACSIN2 (endogenous) (from UniProt Q9UNF0 1-486)”, the binding entry with EHD4-GFP (human) is given as “binds”.

B1: EHD4 (endogenous) (protein, UniProt Q9H223 1-541)
chain: T1 sequence
For the molecule B1, in the assay with PACSIN2-GFP, the binding entry is “binds”.
